# In PMC10443802 (JCI Insight, 2023):
# Tested on: OATP1B2
# Assay: Untargeted metabolomics of plasma and DRG, WT vs OATP1B2-deficient mice
# Format: in vivo, mouse
# Settings: untargeted metabolomics, WT vs OATP1B2-deficient mice
# [1] = supplement sheet "Figure 5B" (volcano plot)
# [2] = Figure 5B source data (volcano plot), log2 fold change of metabolite level
Compound,"Log2FoldChange (sheet ""Figure 5C"")",Log2FoldChange [1],further results
CCCCCCCC/C=C\CCCCCC/C=C\OCC(COP(=O)(O)OCCN)OC(=O)CCCCCCC/C=C\CCCCCCCC (stereo not shown),-0.1681,,
CCCCC/C=C\C/C=C\C/C=C\C/C=C\CCCC(=O)O[C@H](CO/C=C\CCCCCCCCCCCCCC)COP(=O)([O-])OCC[N+](C)(C)C,-0.08927,0.546,
CCCCC/C=C\C/C=C\C/C=C\C/C=C\CCCC(=O)O[C@H](CO/C=C\CCCCCCCCCCCCCC)COP(=O)(O)OCCN,-0.2009,0.4222,
CCCCC/C=C\C/C=C\CCCCCCCC(=O)O[C@H](CO/C=C\CCCCCCCCCCCCCC)COP(=O)([O-])OCC[N+](C)(C)C,-0.08927,0.3103,
CCCCC/C=C\C/C=C\CCCCCCCC(=O)O[C@H](COC=CCCCCCCCCCCCCCC)COP(=O)(O)OCCN,-0.2345,0.4222,
CCCCCCCC/C=C\CCCCCCCC(=O)O[C@H](CO/C=C\CCCCCCCCCCCCCC)COP(=O)([O-])OCC[N+](C)(C)C,,0.251,
CCCCCCCCC=CCCCCCCCC(=O)OC(COC=CCCCCCCCCCCCCCC)COP(=O)(O)OCCN (stereo not shown),-0.2863,0.4005,
CCCCCCCCCCCCCC/C=C/OCC(COP(=O)([O-])OCC[N+](C)(C)C)OC(=O)CCCCCCCCCCCCCCC (stereo not shown),-0.1681,0.3103,
CCCCC/C=C\C/C=C\C/C=C\C/C=C\CCCC(=O)O[C@H](CO/C=C\CCCCCCCCCCCCCCCC)COP(=O)(O)OCCN,-0.1203,0.4114,
CCCCC/C=C\C/C=C\CCCCCCCC(=O)O[C@H](CO/C=C\CCCCCCCCCCCCCCCC)COP(=O)(O)OCCN,,0.3448,
CCCCCCCCC=CCCCCCCCC(=O)OC(COC=CCCCCCCCCCCCCCCCC)COP(=O)(O)OCCN (stereo not shown),-0.3219,0.3785,
CCCCC/C=C\C/C=C\C/C=C\C/C=C\CCCC(=O)O[C@H](COC(=O)CCCCCCC/C=C\C/C=C\CCCCC)COP(=O)([O-])OCC[N+](C)(C)C,0.1763,0.4436,
CCCCC/C=C\C/C=C\C/C=C\C/C=C\CCCC(=O)O[C@H](COC(=O)CCCCCCC/C=C\C/C=C\CCCCC)COP(=O)(O)OCCN,0.08406,0.5656,
CCC=CCC=CCC=CCCCCCCCC(=O)OC(COC(=O)CCCCCCCC=CCC=CCCCCC)COP(=O)([O-])OCC[N+](C)(C)C (stereo not shown),,0.5945,
CCCCC/C=C\C/C=C\C/C=C\C/C=C\CCCC(=O)O[C@H](COC(=O)CCCCCCCCCCCCC)COP(=O)([O-])OCC[N+](C)(C)C,0.2016,,
CC/C=C\C/C=C\C/C=C\C/C=C\C/C=C\C/C=C\CCC(=O)O[C@H](COC(=O)CCCCCCC/C=C\CCCCCCCC)COP(=O)([O-])OCC[N+](C)(C)C,-0.08927,0.4222,
CC/C=C\C/C=C\C/C=C\C/C=C\C/C=C\C/C=C\CCC(=O)O[C@H](COC(=O)CCCCCCC/C=C\CCCCCCCC)COP(=O)(O)OCCN,-0.152,0.3103,
CC/C=C\C/C=C\C/C=C\CCCCCCCC(=O)O[C@H](COC(=O)CCCCCCC/C=C\CCCCCC)COP(=O)([O-])OCC[N+](C)(C)C,,0.8953,
CCCCC/C=C\C/C=C\CCCCCCCC(=O)O[C@H](COC(=O)CCCCCCC/C=C\CCCCCC)COP(=O)([O-])OCC[N+](C)(C)C,0,,

Compound,"Log2FoldChange (sheet ""Figure 5C"")",Log2FoldChange [1],further results
CCCCC/C=C\C/C=C\C/C=C\C/C=C\CCCC(=O)O[C@H](COC(=O)CCCCCCCCCCCCCCC)COP(=O)([O-])OCC[N+](C)(C)C,0,,"Log2FoldChange (supplement sheet ""Figure 5B""): 0.1375"
CCCCC/C=C\C/C=C\C/C=C\C/C=C\CCCC(=O)OC(COC(=O)CCCCCCCCCCCCCCC)COP(=O)(O)OCCN (stereo not shown),-0.08927,,"Log2FoldChange (supplement sheet ""Figure 5B""): 0.111"
CCCCC/C=C\C/C=C\C/C=C\C/C=C\CCCC(=O)O[C@H](COC(=O)CCCCCCCCCCCCCCC)COP(=O)(O)OC1C(O)C(O)C(O)C(O)C1O (stereo partly shown),-0.4344,,
CC/C=C\C/C=C\C/C=C\C/C=C\C/C=C\C/C=C\CCC(=O)O[C@H](COC(=O)CCCCCCCCCCCCCCC)COP(=O)([O-])OCC[N+](C)(C)C,-0.08927,,"Log2FoldChange (supplement sheet ""Figure 5B""): 0.111"
CC/C=C\C/C=C\C/C=C\C/C=C\C/C=C\C/C=C\CCC(=O)O[C@H](COC(=O)CCCCCCCCCCCCCCC)COP(=O)(O)OCCN,-0.074,,"Log2FoldChange (supplement sheet ""Figure 5B""): 0.1375"
CCCCCC/C=C\CCCCCCCC(=O)O[C@H](COC(=O)CCCCCCCCCCCCCCC)COP(=O)([O-])OCC[N+](C)(C)C,-0.152,,
CCCCC/C=C\C/C=C\C/C=C\C/C=C\CCCC(=O)O[C@H](COC(=O)CCCCCCCCCCCCCCCCC)COP(=O)(O)OCCN,-0.1681,,
CCCCC/C=C\C/C=C\C/C=C\C/C=C\CCCC(=O)OC(COC(=O)CCCCCCCCCCCCCCCCC)COP(=O)(O)OC1C(O)C(O)C(O)C(O)C1O (stereo not shown),-0.1047,,
CCCCC/C=C\C/C=C\C/C=C\C/C=C\CCCC(=O)O[C@H](COC(=O)CCCCCCCCCCCCCCCCC)COP(=O)(O)OC[C@H](N)C(=O)O,-0.3219,,"Log2FoldChange (supplement sheet ""Figure 5B""): 0.02857"
CC/C=C\C/C=C\C/C=C\C/C=C\C/C=C\C/C=C\CCC(=O)O[C@H](COC(=O)CCCCCCCCCCCCCCCCC)COP(=O)([O-])OCC[N+](C)(C)C,,,"Log2FoldChange (supplement sheet ""Figure 5B""): -0.074"
CC/C=C\C/C=C\C/C=C\C/C=C\C/C=C\C/C=C\CCC(=O)O[C@H](COC(=O)CCCCCCCCCCCCCCCCC)COP(=O)(O)OCCN,-0.2009,,"Log2FoldChange (supplement sheet ""Figure 5B""): -0.152"
CSC=CC(O)C(O)C(=O)O (stereo not shown),,0.4222,
O=C(O)c1c(O)c(Cl)cc(Br)c1O,,,"Log2FoldChange (supplement sheet ""Figure 5B""): -0.1203"
CCCCCc1oc(CCC(=O)O)c(C(=O)O)c1C,,,Log2FoldChange [2]: -1.2863
CCCCCCCC/C=C\CCCCCCCCCCCCCC(=O)N[C@@H](CO[C@@H]1O[C@H](CO)[C@H](O)[C@H](OS(=O)(=O)O)[C@H]1O)[C@H](O)/C=C/CCCCCCCCCCCCC,-0.3959,,
CC(CCC[C@@H](C)[C@H]1CC[C@H]2[C@@H]3[C@H](O)CC4=CC(=O)CC[C@]4(C)[C@H]3CC[C@]12C)C(=O)O (stereo partly shown),,0.3448,
CC(C(=O)N1CCCC1C(=O)[O-])[N+](C)(C)C (stereo not shown),,0.7225,
Nc1ncnc2c1ncn2[C@@H]1O[C@@H]2COP(=O)(O)O[C@H]2[C@H]1O,-0.2176,,
CCCCCCCCCCCCCCCCCCCCCC(=O)N[C@@H](COP(=O)([O-])OCC[N+](C)(C)C)[C@H](O)CCCCCCCCCCCCCCC,,,"Log2FoldChange (supplement sheet ""Figure 5B""): -0.1047"

Compound,"Log2FoldChange (sheet ""Figure 5C"")",Log2FoldChange [1],further results
CCC(NC(=O)CCC(N)C(=O)O)C(=O)O (stereo not shown),,,Log2FoldChange [2]: -0.5995
CCCCCCCCCCCCCC=CC(O)C(CO[C@@H]1O[C@H](CO)[C@@H](O[C@@H]2O[C@H](CO)[C@H](O)[C@H](O)[C@H]2O)[C@H](O)[C@H]1O)NC(=O)CCCCCCCCCCCCCCC (stereo partly shown),,0.4751,
CCCCCCCCCCCCCCCC(=O)N[C@@H](COP(=O)([O-])OCC[N+](C)(C)C)[C@H](O)CCCCCCCCCCCCCCC,-0.3401,,
O=C(O)[C@H]1OC(O)[C@H](O)[C@@H](O)[C@@H]1O (mixture of isomers) [glucuronate],,1.664,
OC[C@H]1O[C@H](O[C@H]2[C@H](O)[C@@H](O)C(O)O[C@@H]2CO)[C@H](O)[C@@H](O)[C@@H]1O (mixture of isomers) [maltose],,,"Log2FoldChange (supplement sheet ""Figure 5B""): -0.08927"
"CCCCC/C=C\C/C=C\CCCCCCCC(=O)OC[C@H](COP(=O)([O-])OCC[N+](C)(C)C)OC(=O)CCCCCCC/C=C\C/C=C\CCCCC [1,2-dilinoleoyl-GPC (18:2/18:2)]",-0.08927,0.3785,
"CCCCC/C=C\C/C=C\CCCCCCCC(=O)OC[C@H](COP(=O)(O)OCCN)OC(=O)CCCCCCC/C=C\C/C=C\CCCCC [1,2-dilinoleoyl-GPE (18:2/18:2)*]",,0.4222,
"CCCCCCCC/C=C\CCCCCCCC(=O)OC[C@H](COP(=O)([O-])OCC[N+](C)(C)C)OC(=O)CCCCCCC/C=C\CCCCCCCC [1,2-dioleoyl-GPC (18:1/18:1)]",-0.1361,,
"CCCCCCCC/C=C\CCCCCCCC(=O)OC[C@H](COP(=O)(O)OCCN)OC(=O)CCCCCCC/C=C\CCCCCCCC [1,2-dioleoyl-GPE (18:1/18:1)]",-0.2176,,
"CCCCCCCC/C=C\CCCCCCCC(=O)OC[C@H](COP(=O)(O)OC[C@H](N)C(=O)O)OC(=O)CCCCCCC/C=C\CCCCCCCC [1,2-dioleoyl-GPS (18:1/18:1)]",-0.3959,,
"CCCCCCCCCCCCCCCC(=O)OC[C@H](COP(=O)([O-])OCC[N+](C)(C)C)OC(=O)CCCCCCCCCCCCCCC [1,2-dipalmitoyl-GPC (16:0/16:0)]",-0.2345,0.3896,
"CCCCCCCCCCCCCCCC(=O)OC[C@H](COP(=O)(O)OCCN)OC(=O)CCCCCCCCCCCCCCC [1,2-dipalmitoyl-GPE (16:0/16:0)*]",,1.014,
"CCCCCCCCCCCCCCCCCC(=O)OC[C@H](COP(=O)([O-])OCC[N+](C)(C)C)OC(=O)CCCCCCCCCCCCCCCCC [1,2-distearoyl-GPC (18:0/18:0)]",,0.433,
"OC[C@H]1OC[C@H](O)[C@@H](O)[C@@H]1O [1,5-anhydroglucitol (1,5-AG)]",-0.152,,Log2FoldChange [2]: -0.2009
CCCCCCCC/C=C\CCCCCC/C=C\OCC(O)COP(=O)(O)OCCN (stereo not shown) [1-(1-enyl-oleoyl)-GPE (P-18:1)*],,1.111,
CCCCCCCCCCCCCC/C=C/OCC(O)COP(=O)([O-])OCC[N+](C)(C)C (stereo not shown) [1-(1-enyl-palmitoyl)-GPC (P-16:0)*],,0.669,
CCCCCCCCCCCCCC/C=C\OC[C@@H](O)COP(=O)(O)OCCN [1-(1-enyl-palmitoyl)-GPE (P-16:0)*],0.275,0.84,
CCCCCCCCCCCCCCCC/C=C\OC[C@@H](O)COP(=O)(O)OCCN [1-(1-enyl-stearoyl)-GPE (P-18:0)*],,0.7824,
CCCCC/C=C\C/C=C\C/C=C\C/C=C\CCCC(=O)OCC(O)COP(=O)(O)O (stereo not shown) [1-arachidonoyl-GPA (20:4)],,0.848,
